Among the data in PubChem BioAssay AID662 (National Center for Advancing Translational Sciences (NCATS), 2007) are AC50 values, retold here.

This is one part of the list. These are further read-outs of the screen, such as a control signal, another cell line or another target. No call is given for them. The list favours compounds with an active or inconclusive main result. The note in brackets gives the kind of curve behind each potency; many fits are weak.

The assay is described as follows: Cell signaling CRE-BLA (Fsk stim). To be noted: CHO CRE-bla reporter (cAMP response element driving beta-lactamase), forskolin EC10, beta-lactamase ratio; measured here: 460 nm blue channel. The procedure, abridged:
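AC50 values, positive or negative, reflect shifts in EC10 NKH 477-induced CRE-bla reporter activity in CHO cells. Incubation lasted 3 h at 37 °C before CCF4 substrate (2 h, room temperature) and ratiometric 460/530 nm reading.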
In the case of `Cc1cccc2cc(C#N)c(NCCCn3ccnc3)nc12`, the AC50 (commonly the concentration giving half of the maximal activity seen) is 12.6 µM [rising, single point]. As for `CN1CCN(C(=O)CN(Cc2ccc(Cl)cc2)S(C)(=O)=O)CC1`, the figure is 5.01 µM [falling, full curve, poor fit]; as for `O=C(CSc1nc2c(cnn2-c2ccccc2)c(=O)[nH]1)N1CCOCC1`, 0.00398 µM [falling, full curve, poor fit]; as for `CCCCOC(=O)C1=C(C)Nc2ncnn2C1c1ccc(OCC)c(OC)c1` (configuration not stated), 25.1 µM [rising, single point].

In the case of `CCC(C)(C)n1nnnc1C(c1ccc2ncccc2c1)N1CCN2CCCC2C1` (configuration not stated), the AC50 was 0.794 µM [falling, full curve].

As to `Clc1cccc(CSc2nnc([C@@H]3CCCN3)o2)c1`, the AC50 is 0.00316 µM [falling, full curve, poor fit].

With `COc1cccc(-n2nnc3c(=O)n(Cc4c(F)cccc4Cl)cnc32)c1`, the AC50 was 1 µM [rising, partial curve]. The value for `O=C1C2CCCN2C(c2ccc(Cl)cc2)N1c1nccs1` (configuration not stated) was 5.01 µM [falling, single point]. The value for `NCCCCNCCCN` was 0.01 µM [falling, full curve, poor fit]; that for `CC(=O)Nc1sc(C)c(C)c1C(=O)OC1CCOC1=O` (configuration not stated) was 3.16 µM [rising, partial curve]; that for `CC(C)c1ccccc1N1CC(C(=O)O)CC1=O` (configuration not stated) was 0.00398 µM [falling, full curve]. As for `Cc1ccccc1-c1ccc2ncnc(N3CCOCC3)c2c1`, the figure is 2.51 µM [falling, single point]; as for `CCC1SC(=NC(=O)c2ccc(Cl)c(Cl)c2)NC1=O` (configuration not stated), 1 µM [rising, partial curve]. Turning to `O=c1c2[nH]c3ccc(F)cc3c2ncn1CCCn1ccnc1`, the concentration at half-maximal activity (AC50) is 6.31 µM [rising, single point]. As for `Cn1c(=O)c2c(nc(N3CCOCC3)n2CC(=O)C23CC4CC(CC(C4)C2)C3)n(C)c1=O`, the figure is 25.1 µM [rising, single point].

As for `C=C1CC[C@@H](O)C/C1=C/C=C1\CCC[C@]2(C)[C@@H]1CC[C@H]2[C@@H](C)/C=C\[C@@H](C)C(C)C`, the concentration at half-maximal activity (AC50) is 12.6 µM [falling, single point]. As to `O=C(OC[C@@H](O)CO)c1ccccc1Nc1ccnc2cc(Cl)ccc12`, the AC50 was 10 µM [rising, partial curve]. As for `CS(=O)(=O)Nc1cccc(-c2nc(N3CCOCC3)c3ccccc3n2)c1`, the figure is 3.16 µM [rising, full curve]; as for `CCN(CC)Cc1csc(C(N)=O)c1`, 0.0158 µM [falling, full curve]. The value for `COCc1nn2c(N)c(C#N)cnc2c1-c1ccccc1` was 25.1 µM [rising, single point]; that for `Cc1cc2cc(C)c3nnc(SCC(=O)NCc4ccco4)n3c2cc1C` was 20 µM [rising, single point]. As for `Nc1ccccc1OCCOCCOc1ccccc1N`, the figure is 0.00398 µM [falling, full curve, poor fit]; as for `COc1cccc(CN2CCN(C(=O)c3cccc(F)c3)CC2)c1`, 0.00316 µM [falling, full curve]. `CCOC(=O)c1c(C)n(C)c2ccc(OCC(N)=O)cc12`: the AC50 was 10 µM [rising, partial curve].

As for `CS(=O)(=O)N1CCCC(C(=O)NCc2ccc(F)cc2Cl)C1` (configuration not stated), the AC50 is 3.98 µM [rising, partial curve]. As for `N#C/C(=C\c1cccs1)Sc1nc2ccccc2s1`, the figure is 12.6 µM [rising, partial curve]; as for `CC[C@@H]1CN2CCc3cc(OC)c(OC)cc3[C@H]2C[C@@H]1C[C@@H]1NCCc2cc(OC)c(OC)cc21`, 12.6 µM [falling, full curve]; as for `C=CCNC(=O)c1ccccc1NC(=O)c1ccccc1`, 0.00316 µM [falling, full curve, poor fit]. The value for `COc1cc(-c2nnc3sc(C4CCCCC4)nn23)cc(OC)c1OC` was 1.26 µM [rising, partial curve]. As for `COc1cccc(Nc2ncnc3c2cnn3C)c1`, the figure is 10 µM [rising, partial curve]; as for `Cc1c(O)ccc2c3c(c(=O)oc12)CCCC3`, 10 µM [rising, single point]. With `O=C(c1ccco1)N1CCC2(CCN(Cc3cc(C(F)(F)F)cc(C(F)(F)F)c3)CC2)CC1`, the AC50 is 15.8 µM [rising, partial curve, poor fit]. As for `CC(=O)N1CCN(c2ccc(NC(=O)c3ccc(C(C)(C)C)cc3)cc2)CC1`, the figure is 25.1 µM [falling, single point]; as for `CCc1ccc(N2CCCn3c2nc2c3c(=O)n(CCN3CCOCC3)c(=O)n2C)cc1`, 0.00316 µM [falling, full curve, poor fit]. `N#CCCn1c(=O)c(-c2ccc(Cl)cc2)nc2cnc(Nc3ccccc3)nc21`: the AC50 is 2 µM [rising, full curve]. As for `Cc1nc(NCCCn2ccnc2)c2oc3ccccc3c2n1`, the figure is 12.6 µM [rising, partial curve]; as for `O=C(O)C1(C(=O)O)CCN(S(=O)(=O)c2ccccc2)CC1`, 3.98 µM [rising, partial curve, poor fit].

For `COc1cccc(-c2nc(NCc3cccs3)c3ccccc3n2)c1`, the AC50 was 7.94 µM [falling, single point]. The value for `Cc1ccccc1Cn1nc(C)c(NC(=O)c2cc3nc(-c4ccco4)cc(C(F)(F)F)n3n2)c1C` was 2.51 µM [rising, full curve]; that for `COc1ccc(Oc2ncc3nc(C)c(=O)n(Cc4cccs4)c3n2)cc1` was 10 µM [rising, partial curve]; that for `CCCn1c(SCC(=O)Nc2cc(C)on2)nc2c1c(=O)n(C)c(=O)n2C` was 12.6 µM [falling, single point]. Turning to `COc1ccc(NC(=O)Nc2nnc(N3CCC(C)CC3)s2)cc1OC`, the AC50 was 3.98 µM [rising, single point]. The value for `Cc1cc(O)cc(O)c1-c1onc(C(F)(F)F)c1-c1cscn1` was 15.8 µM [falling, partial curve]; that for `COc1cccc(C(=O)CSc2nnc(-c3cc(OC)c(OC)c(OC)c3)o2)c1` was 7.94 µM [rising, partial curve].

For `CCOC(=O)c1c(C)n(C)c2ccc(OCC(O)Cn3nc(C)c(Br)c3C)cc12` (configuration not stated), the AC50 was 15.8 µM [falling, single point]. In the case of `c1ccc(C(c2nnnn2Cc2cccs2)N2CCN(C3CCCC3)CC2)cc1` (configuration not stated), the AC50 is 0.01 µM [falling, full curve, poor fit]. As for `O=C(Nc1cccc(-c2cn3cccnc3n2)c1)c1ccco1`, the figure is 0.01 µM [falling, full curve]; as for `COc1ncc2nc(-c3ccccc3)c(=O)n(Cc3cccs3)c2n1`, 12.6 µM [rising, partial curve]; as for `CCC/C=C(\CCC)C(NS(=O)(=O)c1ccc(C(F)(F)F)cc1)c1ccc(C(=O)OC)cc1` (configuration not stated), 2.51 µM [rising, full curve]. As for `Oc1c(C(c2cccs2)N2CCC3(CC2)OCCO3)sc2ncnn12` (configuration not stated), the figure is 12.6 µM [rising, partial curve].

For `CC(=O)Nc1nc(=S)n(-c2ccccc2)[nH]1`, the AC50 was 0.316 µM [rising, partial curve]. As for `COc1ccc2cc(CCNC(=O)CC(C)(C)C)c(=O)[nH]c2c1`, the figure is 3.16 µM [falling, single point]. Turning to `COCCn1c(-c2ccco2)nc2nc3ccccc3nc21`, the half-maximal activity concentration (AC50) is 10 µM [rising, partial curve].

In the case of `Cc1ccc(NC(=O)CSc2nccc(=O)[nH]2)c(S(=O)(=O)N2CCOCC2)c1`, the AC50 is 3.16 µM [rising, single point].

On to `O=C(Nc1nnc(N2CCCCCC2)s1)c1cc(-c2ccc(Br)cc2)on1`, for which the AC50 is 3.98 µM [rising, single point]. Consider `CC(C)C(=O)Nc1ccccc1N1CCN(S(C)(=O)=O)CC1`, for which the AC50 is 12.6 µM [rising, partial curve]. The value for `Cc1[nH]c2ccccc2c1C(=O)COC(=O)C1CCC(=O)N1` (configuration not stated) was 5.01 µM [falling, single point]; that for `CC1CCCC(C)N1CCCNC(=O)c1cc2c(=O)n(C)c3ccccc3c2n1C` (configuration not stated) was 12.6 µM [rising, partial curve]. The value for `Cc1ccccc1-c1nc(NC2CC2)c2ccccc2n1` was 1.26 µM [rising, full curve, poor fit]; that for `COc1cccc(-c2csc3nnc(SCC(=O)NCc4cccs4)n23)c1` was 25.1 µM [rising, single point]; that for `CCOC(=O)CS(=O)(=O)c1nc(-c2ccccc2)cc(C(F)(F)F)n1` was 12.6 µM [falling, partial curve]. As for `c1ccc(-c2cn3c4c(sc3n2)CCCC4)cc1`, the figure is 3.16 µM [rising, single point]; as for `O=C(NC1CCCCC1)c1ccc(S(=O)(=O)NCc2ccco2)cc1`, 0.794 µM [falling, full curve]; as for `O=C(Nc1cccc(F)c1)c1cc(S(=O)(=O)N2CCC(C(=O)O)CC2)ccc1F`, 10 µM [rising, partial curve]. On to `CC1CCN(C(=O)C2c3ccccc3C(=O)N3CCc4ccccc4C23)CC1` (configuration not stated), for which the AC50 is 0.0631 µM [falling, partial curve].

In the case of `CCOC(=O)c1cc2n(c1C)-c1ccccc1C2=O`, the AC50 was 15.8 µM [rising, partial curve]. As for `CC(C)[C@@H](CC(=O)N[C@@H]1CCCC[C@H]1C(=O)N[C@H](CC(=O)N[C@@H](CCC(=O)O)CC(=O)O)Cc1ccccc1)NC(=O)C[C@H](CO)NC(=O)[C@@H]1CCCC[C@H]1N`, the figure is 6.31 µM [falling, partial curve, poor fit].
